Results taken from PubChem BioAssay AID1445 (SRMLSC, 2008).
Among all 220,000 compounds or so, about 910 (0.41%) were called active. The shares of active, inactive and inconclusive entries below differ from those in the screen.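 How the source made its calls: active means primary inhibition above the hit cutoff, then over 50% inhibition at one or more dose response concentrations (cut at about 23% in these data, passing the limit was not always enough); inconclusive means conflicting primary data, or primary hits not chosen for dose response; inactive means low primary inhibition, or under 50% at every dose.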

Amino acid sequences for entries named in this document (tags omitted). A change or cut given only in a name is not applied to a line headed by its entry.
UniProt O96935: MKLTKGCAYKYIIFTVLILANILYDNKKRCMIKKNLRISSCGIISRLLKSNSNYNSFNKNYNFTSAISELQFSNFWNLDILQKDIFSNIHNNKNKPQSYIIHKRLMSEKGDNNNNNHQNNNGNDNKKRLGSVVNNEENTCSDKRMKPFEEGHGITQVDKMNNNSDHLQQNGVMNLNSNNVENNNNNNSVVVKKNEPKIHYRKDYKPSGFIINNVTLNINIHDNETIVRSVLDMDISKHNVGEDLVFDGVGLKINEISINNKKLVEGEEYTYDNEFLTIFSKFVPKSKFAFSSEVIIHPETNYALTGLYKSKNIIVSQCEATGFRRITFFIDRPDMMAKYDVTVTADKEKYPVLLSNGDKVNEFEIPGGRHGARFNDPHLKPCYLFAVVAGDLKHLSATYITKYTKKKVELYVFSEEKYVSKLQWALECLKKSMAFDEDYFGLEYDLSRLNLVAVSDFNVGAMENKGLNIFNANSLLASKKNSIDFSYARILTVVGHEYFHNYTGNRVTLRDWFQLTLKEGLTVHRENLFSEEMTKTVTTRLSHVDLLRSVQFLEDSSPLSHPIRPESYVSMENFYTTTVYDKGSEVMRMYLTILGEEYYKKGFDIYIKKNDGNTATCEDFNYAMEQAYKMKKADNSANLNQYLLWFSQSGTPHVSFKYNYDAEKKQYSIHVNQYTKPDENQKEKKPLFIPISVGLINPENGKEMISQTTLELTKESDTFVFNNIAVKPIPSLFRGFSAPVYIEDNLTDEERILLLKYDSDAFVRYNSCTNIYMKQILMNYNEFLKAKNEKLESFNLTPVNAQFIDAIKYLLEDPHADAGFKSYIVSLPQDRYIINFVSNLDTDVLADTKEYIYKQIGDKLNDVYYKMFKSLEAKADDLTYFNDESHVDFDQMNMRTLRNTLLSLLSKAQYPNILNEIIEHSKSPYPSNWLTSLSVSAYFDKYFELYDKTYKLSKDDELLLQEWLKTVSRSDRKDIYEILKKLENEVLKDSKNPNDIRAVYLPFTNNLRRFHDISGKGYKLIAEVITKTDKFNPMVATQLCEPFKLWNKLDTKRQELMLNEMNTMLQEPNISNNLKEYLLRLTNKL

target: Aminopeptidase N (Plasmodium falciparum (isolate 3D7)) (UniProt O96935); experiment: P. falciparum M1AAP inhibitors, biochemical, fluorogenic H-Leu-NHMec substrate, 1536-well (AID 1445); details: recombinant M1AAP, H-Leu-NHMec fluorogenic kinetic assay; at 30 µM, active compounds read high unless noted;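 further: plate controls were DMSO full reaction for no effect and no enzyme background for full effect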

SMILES	inhibition
O=C(O)C(Oc1ccc2c3c(c(=O)oc2c1)CCC3)c1ccccc1 (stereo not given)	active: 24.2%
Cc1cnc(C(=O)Nc2nc(-c3ccccc3)cs2)cn1	inactive: 7.19%
COc1ccc(-c2ccnc3ncnn23)cc1	inconclusive: 27.7%
O=C(O)c1cc(N2N=C(C(F)(F)F)/C(=C/C=C/c3ccco3)C2=O)ccc1Cl	inconclusive: 31.9%
C=CCc1cccc2cc(C(=O)NNC(=O)c3ccncc3)c(=O)oc12	inactive: 20.9%
CS(=O)(=O)c1nsc2nc(=O)c(/C=C3\C=Nc4ccccc43)c(N)n12	inconclusive: 25.1%
CCCn1c(N2CCN(C)CC2)nc2c1c(=O)[nH]c(=O)n2C	inactive: -4.63%
COc1cc(/C=C(\C#N)C(=O)Nc2ccccc2C(=O)O)cc(Cl)c1OC	inconclusive: 25.9%
O=C(NCc1cccc(Cl)c1)c1ccc(-c2csnn2)cc1	inconclusive: 24.9%
O=C(CC(Cc1ccccc1)c1ccco1)NC1CCCCC1 (stereo not given)	inactive: 3.48%
COc1ccc(C2c3c(-c4ccccc4)n[nH]c3C(=O)N2c2ccc(C(=O)O)cc2)cc1 (stereo not given)	inactive: 5.67%
CN1CCN(Cc2nc3ccccc3c(=O)n2Cc2nc(-c3ccc([N+](=O)[O-])cc3)cs2)CC1	inactive: 11.9%
CCOc1ccc(-n2c(=S)sc3c(=O)[nH]c(SCC(=O)NCc4ccco4)nc32)cc1	active: 29.8%
CSc1nc(NCCOCCO)c2sc3nc(-c4ccco4)c4c(c3c2n1)CCC4	inconclusive: 27.1%
CCN(CC)c1ccc(-c2nc3cnccc3n2C)cc1	inconclusive: 27.6%
COc1ccc(CCNC(=O)COC(=O)c2ccc(N3CCCC3=O)cc2)cc1	inactive: -2.72%
CC1CCC/C(=C\Nc2ccc(O)cc2)C1=O (stereo not given)	inconclusive: 23.6%
COc1ccc(/C=N/NC(=O)c2cccc([N+](=O)[O-])c2)cc1OC(=O)c1ccccc1	inconclusive: 25.1%
Cc1ccc(C(=O)Nc2ccccc2C(=O)O)cc1S(=O)(=O)NCc1ccccc1	inconclusive: 26.6%
O=[N+]([O-])c1cccc(/C=N/N2CCN(c3ccccn3)CC2)c1	inconclusive: 27.5%
O=C(NCCCc1ccccc1)C1CC(=O)N(c2ccc3c(c2)OCCO3)C1 (stereo not given)	inactive: 2.32%
O=C(O)c1ccccc1NS(=O)(=O)c1ccc2c3c(cccc13)C(=O)N2	inconclusive: 27%
O=C1C(Cl)=C(NS(=O)(=O)c2ccc([N+](=O)[O-])cc2)C(=O)c2ccccc21	inconclusive: 27%
COc1cc(/C=C(\C#N)C(=O)NCCc2ccccc2)cc(OC)c1O	inconclusive: 23.7%
COc1cc(C(=O)Nc2cc(-c3cn4cccnc4n3)ccc2C)cc(OC)c1OC	inconclusive: 27.7%
COc1ccc(CCNC(=O)COC(=O)c2cc(S(=O)(=O)NCc3ccccc3)ccc2O)cc1OC	inconclusive: 26.6%
CC(=NCc1cccc(Cl)c1)c1nc(-c2ccco2)oc1O	inconclusive: 25.2%
Cc1ccc(Cn2c(SCC(=O)N/N=C/c3ccccc3OCC(=O)O)nc3ccccc32)cc1	inconclusive: 27.2%

SMILES	inhibition
COc1cc(/C=C2\SC(=S)N(c3cccnc3)C2=O)ccc1O	inconclusive: 26.2%
C=C1c2cccc(O)c2C(O)=C2C(=O)[C@]3(O)C(O)=C(C(N)=O)C(=O)[C@@H](N(C)C)[C@@H]3[C@@H](O)[C@H]12	inconclusive: 24.3%
CCOc1cccc(Nc2cc3n(c(=O)n2)CCc2cc(OC)c(OC)cc2-3)c1	inactive: 12.6%
COc1cccc(/C=C(\CC(=O)O)c2nc3ccccc3s2)c1	inactive: 11.8%
O=S(=O)(Cc1ccc(Cl)cc1)NCC1CCCO1 (stereo not given)	inconclusive: 28.3%
Cc1ccc(N(CC(=O)O)S(C)(=O)=O)cc1Cl	inactive: -5.06%
COc1ccc(S(=O)(=O)c2c(N)n(Cc3ccco3)c3nc4ccccc4nc23)cc1	inconclusive: 27.4%
CCCn1c(C)cc(/C=C(\C#N)C(=O)O)c1C	inconclusive: 23.9%
CC1(C)CC(=O)c2cc(OCC(=O)N3CCCCCC3)ccc2O1	inconclusive: 14.9%
COc1ccc(/C=N/Nc2nncc3ccccc23)cc1	inconclusive: 25.6%
C/C(C/C(C)=C1/SC(=S)NC1=O)=C1\SC(=S)NC1=O	inconclusive: 63%
Cc1cc(N2CCCC2)c(C)cc1C=O	inactive: 17.1%
Cc1occc1C(=O)NCc1cccc(CNC(=O)c2ccoc2C)c1	inconclusive: 21%
O=C(Nc1ccccc1C(=O)O)c1ccc(Br)c(S(=O)(=O)NCc2ccccc2)c1	inconclusive: 24.5%
O=C(CN1CCC(NC(=O)c2ccccc2F)CC1)NCc1ccc(F)cc1	active: 27.4%
CC1=NN(c2ccccc2)C(=O)/C1=C\C=C1/N(C)c2ccccc2C1(C)C	inconclusive: 23.7%
O=C(NC1CCCCCCC1)c1ccc2c(c1)N(Cc1ccc(F)cc1)C(=O)CS2=O (stereo not given)	active: 23.5%
Cc1cc(C(=O)Nc2sc3c(c2C#N)CCC3)no1	active: 23.7%
O=C(CCc1ccccc1)NCC(=O)N/N=C/c1ccc(O)cc1O	inconclusive: 26.5%
COc1ccc(/C=N/N=C2/NC(=O)C(CC(=O)O)S2)cc1OCc1ccc(Cl)cc1Cl (stereo not given)	inconclusive: 27.6%
O=C(O)c1ccc(N=Nc2c(O)[nH]c3cc(Cl)ccc23)cc1	inconclusive: 24.7%
Cc1ccc(NS(=O)(=O)c2ccc(N/N=C/c3ccccc3OCC(=O)O)c([N+](=O)[O-])c2)c(C)c1	inconclusive: 26.5%
Oc1ccc(N=Nc2n[nH]c(-c3ccc(Cl)cc3)n2)cc1	active: 26.6%
COC(=O)c1cc(NC(=S)N2CCN(C(=O)C3CCCO3)CC2)cc(C(=O)OC)c1 (stereo not given)	inactive: -0.88%
Cc1cc(/C=C2/C(=N)N3C(=NC2=O)SN=C3S(C)(=O)=O)c(C)n1-c1ccccc1	inconclusive: 24.4%
O=C(COc1ccccc1)NCC(=O)N/N=C/c1ccc(O)cc1O	inconclusive: 27.4%
CC1CCc2nc3ccc(S(=O)(=O)N4CCC(C(=O)N5CCCCCC5)CC4)cc3c(C(=O)O)c2C1 (stereo not given)	inactive: 13.6%

Pulled by compound from the entries so far, 4 records:
SMILES	inhibition
Cc1ccc(N(CC(=O)O)S(C)(=O)=O)cc1Cl	inactive: -5.06%
O=C(CCc1ccccc1)NCC(=O)N/N=C/c1ccc(O)cc1O	inconclusive: 26.5%
COc1ccc(/C=N/Nc2nncc3ccccc23)cc1	inconclusive: 25.6%
O=C(COc1ccccc1)NCC(=O)N/N=C/c1ccc(O)cc1O	inconclusive: 27.4%
